Laboratory results published in article PMC13039736.
These are yes or no findings as the source states them, for the method shown. Binding seen in cells or lysates may run through a third protein. These calls come from enrichment with a bait or labelling near it, and not all partners need be listed.

The chains behind the UniProt entries cited, without tags or fusion partners.
UniProt Q9UNI6: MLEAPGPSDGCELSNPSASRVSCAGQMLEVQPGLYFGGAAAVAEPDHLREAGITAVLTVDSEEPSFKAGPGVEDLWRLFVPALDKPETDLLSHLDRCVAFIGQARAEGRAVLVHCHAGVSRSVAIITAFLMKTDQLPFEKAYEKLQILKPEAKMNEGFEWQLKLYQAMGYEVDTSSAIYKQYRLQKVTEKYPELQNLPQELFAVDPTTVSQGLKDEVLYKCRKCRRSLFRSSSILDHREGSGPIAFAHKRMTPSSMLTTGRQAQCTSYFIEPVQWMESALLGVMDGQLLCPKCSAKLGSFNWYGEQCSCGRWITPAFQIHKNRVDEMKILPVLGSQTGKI

What was measured:
[1] = biological target: LAP-DUSP12-WT (full length) (UniProt Q9UNI6); experiment: affinity purification with mass spectrometry; LAP-DUSP12 HeLa stable line induced with 0.1 ug/mL doxycycline, arrested with 100 nM Taxol 18 h; tandem affinity purification (anti-GFP antibody beads, then S-protein Agarose); eluates by LC-MS/MS
[2] = biological target: BioID2-DUSP12 (UniProt Q9UNI6); experiment: proximity labelling; BioID2-DUSP12 HeLa stable line, 0.1 ug/mL Dox, 100 nM Taxol and 50 uM biotin for 16 h; biotinylated proteins purified on streptavidin Dynabeads; LC-MS/MS

B1: zinc finger protein 622 (ZNF622), endogenous (protein, UniProt Q969S3 1-477)
chain: MATYTCITCRVAFRDADMQRAHYKTDWHRYNLRRKVASMAPVTAEGFQERVRAQRAVAEEESKGSATYCTVCSKKFASFNAYENHLKSRRHVELEKKAVQAVNRKVEMMNEKNLEKGLGVDSVDKDAMNAAIQQAIKAQPSMSPKKAPPAPAKEARNVVAVGTGGRGTHDRDPSEKPPRLQWFEQQAKKLAKQQEEDSEEEEEDLDGDDWEDIDSDEELECEDTEAMDDVVEQDAEEEEAEEGPPLGAIPITDCLFCSHHSSSLMKNVAHMTKDHSFFIPDIEYLSDIKGLIKYLGEKVGVGKICLWCNEKGKSFYSTEAVQAHMNDKSHCKLFTDGDAALEFADFYDFRSSYPDHKEGEDPNKAEELPSEKNLEYDDETMELILPSGARVGHRSLMRYYKQRFGLSRAVAVAKNRKAVGRVLQQYRALGWTGSTGAALMRERDMQYVQRMKSKWMLKTGMKNNATKQMHFRVQVRF
binding [1]: binds | binding [2]: binds
